Measurements reported in the supplement of paper PMC8728848.
The list shows a part of the results.

Assays:
Experiment in all cases: glycan array binding signal (z-score within array); higher = stronger binding
Conditions in all cases: glycan notation: IUPAC condensed, linker removed
[1] = target: Neu5Ac(a2-3)Gal(b1-3)[Neu5Ac(a2-6)]GlcNAc(b1-3)[Fuc(a1-3)[Gal(b1-4)]GlcNAc(b1-6)]Gal(b1-4)Glc
Procedure, shortened: (§1)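 From the Consortium for Functional Glycomics database, 3228 arrays were curated, keeping only those whose protein sequence was available. Binding is given as a within-array Z-score averaged across arrays sharing a protein sequence and across linkers. Negative Z-scores can be read as non-binding.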

[2] = target: Neu5Ac(a2-3)Gal(b1-3)]Neu5Ac(a2-3)Gal(b1-4)]GlcNAc
Procedure, shortened: as §1

Neu5Ac(a2-3)Gal(b1-4)Glc = target: Neu5Ac(a2-3)Gal(b1-4)Glc
Procedure, shortened: as §1

[3] = target: Neu5Ac(a2-3)Gal(b1-4)GlcNAc
Procedure, shortened: as §1

[4] = target: Neu5Ac(a2-3)Gal(b1-4)GlcNAc(b1-2)Man
Procedure, shortened: as §1

[5] = target: Neu5Ac(a2-3)Gal(b1-4)GlcNAc(b1-2)Man(a1-3)[GlcNAc(b1-4)][Neu5Ac(a2-3)Gal(b1-4)GlcNAc(b1-2)Man(a1-6)]Man(b1-4)GlcNAc(b1-4)GlcNAc
Procedure, shortened: as §1

[6] = target: Neu5Ac(a2-3)Gal(b1-4)GlcNAc(b1-2)Man(a1-3)[Neu5Ac(a2-3)Gal(b1-4)GlcNAc(b1-2)Man(a1-6)]Man(b1-4)GlcNAc(b1-4)GlcNAc
Procedure, shortened: as §1

[7] = target: Neu5Ac(a2-3)Gal(b1-4)GlcNAc(b1-2)Man(a1-3)[Neu5Ac(a2-3)Gal(b1-4)GlcNAc(b1-2)Man(a1-6)]Man(b1-4)GlcNAc(b1-4)[Fuc(a1-6)]GlcNAc
Procedure, shortened: as §1

[8] = target: Neu5Ac(a2-3)Gal(b1-4)GlcNAc(b1-2)Man(a1-3)[Neu5Ac(a2-6)Gal(b1-4)GlcNAc(b1-2)Man(a1-6)]Man(b1-4)GlcNAc(b1-4)GlcNAc
Procedure, shortened: as §1

[9] = target: Neu5Ac(a2-3)Gal(b1-4)GlcNAc(b1-2)[Neu5Ac(a2-3)Gal(b1-4)GlcNAc(b1-4)]Man(a1-3)[GlcNAc(b1-4)][Neu5Ac(a2-3)Gal(b1-4)GlcNAc(b1-2)[Neu5Ac(a2-3)Gal(b1-4)GlcNAc(b1-6)]Man(a1-6)]Man(b1-4)GlcNAc(b1-4)GlcNAc
Procedure, shortened: as §1

[10] = target: Neu5Ac(a2-3)Gal(b1-4)GlcNAc(b1-2)[Neu5Ac(a2-3)Gal(b1-4)GlcNAc(b1-4)]Man(a1-3)[GlcNAc(b1-4)][Neu5Ac(a2-3)Gal(b1-4)GlcNAc(b1-4)Man(a1-6)]Man(b1-4)GlcNAc(b1-4)GlcNAc
Procedure, shortened: as §1

[11] = target: Neu5Ac(a2-3)Gal(b1-4)GlcNAc(b1-2)[Neu5Ac(a2-3)Gal(b1-4)GlcNAc(b1-6)]Man(a1-6)[Neu5Ac(a2-3)Gal(b1-4)GlcNAc(b1-2)Man(a1-3)][GlcNAc(b1-4)]Man(b1-4)GlcNAc(b1-4)GlcNAc
Procedure, shortened: as §1

[12] = target: Neu5Ac(a2-3)Gal(b1-4)GlcNAc(b1-3)Gal
Procedure, shortened: as §1

[13] = target: Neu5Ac(a2-3)Gal(b1-4)GlcNAc(b1-3)Gal(b1-3)GlcNAc
Procedure, shortened: as §1

[14] = target: Neu5Ac(a2-3)Gal(b1-4)GlcNAc(b1-3)Gal(b1-4)GlcNAc
Procedure, shortened: as §1

[15] = target: Neu5Ac(a2-3)Gal(b1-4)GlcNAc(b1-3)Gal(b1-4)GlcNAc(b1-2)Man(a1-3)[Neu5Ac(a2-3)Gal(b1-4)GlcNAc(b1-3)Gal(b1-4)GlcNAc(b1-2)Man(a1-6)]Man(b1-4)GlcNAc(b1-4)GlcNAc
Procedure, shortened: as §1

[16] = target: Neu5Ac(a2-3)Gal(b1-4)GlcNAc(b1-3)Gal(b1-4)GlcNAc(b1-3)Gal(b1-4)GlcNAc
Procedure, shortened: as §1

[17] = target: Neu5Ac(a2-3)Gal(b1-4)GlcNAc(b1-3)Gal(b1-4)GlcNAc(b1-3)Gal(b1-4)GlcNAc(b1-2)Man(a1-3)[Neu5Ac(a2-3)Gal(b1-4)GlcNAc(b1-3)Gal(b1-4)GlcNAc(b1-3)Gal(b1-4)GlcNAc(b1-2)Man(a1-6)]GalNAc
Procedure, shortened: as §1

[18] = target: Neu5Ac(a2-3)Gal(b1-4)GlcNAc(b1-3)Gal(b1-4)GlcNAc(b1-3)GalNAc
Procedure, shortened: as §1

[19] = target: Neu5Ac(a2-3)Gal(b1-4)GlcNAc(b1-3)Gal(b1-4)GlcNAc(b1-3)[Neu5Ac(a2-3)Gal(b1-4)GlcNAc(b1-3)Gal(b1-4)GlcNAc(b1-6)]GalNAc
Procedure, shortened: as §1

[20] = target: Neu5Ac(a2-3)Gal(b1-4)GlcNAc(b1-3)Gal(b1-4)GlcNAc(b1-6)[Gal(b1-3)]GalNAc
Procedure, shortened: as §1

[21] = target: Neu5Ac(a2-3)Gal(b1-4)GlcNAc(b1-3)Gal(b1-4)[Fuc(a1-3)]GlcNAc
Procedure, shortened: as §1

[22] = target: Neu5Ac(a2-3)Gal(b1-4)GlcNAc(b1-3)GalNAc
Procedure, shortened: as §1

[23] = target: Neu5Ac(a2-3)Gal(b1-4)GlcNAc(b1-3)[Neu5Ac(a2-3)Gal(b1-4)GlcNAc(b1-6)]GalNAc
Procedure, shortened: as §1

[24] = target: Neu5Ac(a2-3)Gal(b1-4)GlcNAc(b1-6)GalNAc
Procedure, shortened: as §1

[25] = target: Neu5Ac(a2-3)Gal(b1-4)GlcNAc(b1-6)[Gal(b1-3)]GalNAc
Procedure, shortened: as §1

[26] = target: Neu5Ac(a2-3)Gal(b1-4)GlcNAc(b1-6)[Neu5Ac(a2-3)Gal(b1-3)]GalNAc
Procedure, shortened: as §1

[27] = target: Neu5Ac(a2-3)Gal(b1-4)GlcNAc6S
Procedure, shortened: as §1

[28] = target: Neu5Ac(a2-3)Gal(b1-4)[Fuc(a1-3)]GlcNAc
Procedure, shortened: as §1

[29] = target: Neu5Ac(a2-3)Gal(b1-4)[Fuc(a1-3)]GlcNAc(b1-2)Man
Procedure, shortened: as §1

[30] = target: Neu5Ac(a2-3)Gal(b1-4)[Fuc(a1-3)]GlcNAc(b1-3)Gal
Procedure, shortened: as §1

[31] = target: Neu5Ac(a2-3)Gal(b1-4)[Fuc(a1-3)]GlcNAc(b1-3)Gal(b1-4)GlcNAc
Procedure, shortened: as §1

[32] = target: Neu5Ac(a2-3)Gal(b1-4)[Fuc(a1-3)]GlcNAc(b1-3)Gal(b1-4)[Fuc(a1-3)]GlcNAc(b1-3)Gal(b1-4)[Fuc(a1-3)]GlcNAc
Procedure, shortened: as §1

[33] = target: Neu5Ac(a2-3)Gal(b1-4)[Fuc(a1-3)]GlcNAc(b1-3)GalNAc
Procedure, shortened: as §1

[34] = target: Neu5Ac(a2-3)Gal(b1-4)[Fuc(a1-3)]GlcNAc(b1-6)[Gal(b1-3)]GalNAc
Procedure, shortened: as §1

[35] = target: Neu5Ac(a2-3)Gal(b1-4)[Fuc(a1-3)]GlcNAc(b1-6)[Neu5Ac(a2-3)Gal(b1-3)]GalNAc
Procedure, shortened: as §1

[36] = target: Neu5Ac(a2-3)Gal(b1-4)[Fuc(a1-3)]GlcNAc6S
Procedure, shortened: as §1

[37] = target: Neu5Ac(a2-3)Gal6S(b1-4)GlcNAc
Procedure, shortened: as §1

B1: SUN4 (Saccharomyces cerevisiae), P53616 (protein)
chain: MGSSHHHHHHSSGLVPRGSHNGSIYGDLADFSGPYEKFEDGTIPCGQFPSGQGVIPISWLDEGGWSGVENTDTSTGGSCKEGSYCSYACQPGMSKTQWPSDQPSDGRSIGGLLCKDGYLYRSNTDTDYLCEWGVDAAYVVSELSNDVAICRTDYPGTENMVIPTYVQAGDSLPLTVVDQDTYYTWQGLKTSAQYYVNNAGISVEDACVWGSSSSGVGNWAPLNFGAGSSDGVAYLSLIPNPNNGNALNFNVKIVAADDSSTVNGECIYENGSFSGGSDGCTVSVTAGKAKFVLYN
- glycan array binding signal (z-score) [1]: -0.13
- glycan array binding signal (z-score) [2]: -0.699
- glycan array binding signal (z-score) (Neu5Ac(a2-3)Gal(b1-4)Glc): 0.161
- glycan array binding signal (z-score) [3]: -0.138
- glycan array binding signal (z-score) [4]: -0.24
- glycan array binding signal (z-score) [5]: -0.343
- glycan array binding signal (z-score) [6]: 0.18
- glycan array binding signal (z-score) [7]: -0.548
- glycan array binding signal (z-score) [8]: -0.338
- glycan array binding signal (z-score) [9]: 0.48
- glycan array binding signal (z-score) [10]: -0.636
- glycan array binding signal (z-score) [11]: -0.391
- glycan array binding signal (z-score) [12]: 0.136
- glycan array binding signal (z-score) [13]: -0.71
- glycan array binding signal (z-score) [14]: 0.296
- glycan array binding signal (z-score) [15]: 0.062
- glycan array binding signal (z-score) [16]: -0.165
- glycan array binding signal (z-score) [17]: 0.416
- glycan array binding signal (z-score) [18]: 0.459
- glycan array binding signal (z-score) [19]: -0.307
- glycan array binding signal (z-score) [20]: -1.04
- glycan array binding signal (z-score) [21]: -0.248
- glycan array binding signal (z-score) [22]: 0.2
- glycan array binding signal (z-score) [23]: 0.422
- glycan array binding signal (z-score) [24]: -0.402
- glycan array binding signal (z-score) [25]: 0.062
- glycan array binding signal (z-score) [26]: 0.667
- glycan array binding signal (z-score) [27]: -1.19
- glycan array binding signal (z-score) [28]: -0.661
- glycan array binding signal (z-score) [29]: 1.38
- glycan array binding signal (z-score) [30]: -0.808
- glycan array binding signal (z-score) [31]: 1.14
- glycan array binding signal (z-score) [32]: -0.761
- glycan array binding signal (z-score) [33]: 1.91
- glycan array binding signal (z-score) [34]: 0.276
- glycan array binding signal (z-score) [35]: 1.15
- glycan array binding signal (z-score) [36]: 0.712
- glycan array binding signal (z-score) [37]: -0.628
